## Percent effect of library compounds

The chains behind the UniProt entries cited, without tags or fusion partners. Residues count along the entry.
UniProt P9WNZ1, whole entry: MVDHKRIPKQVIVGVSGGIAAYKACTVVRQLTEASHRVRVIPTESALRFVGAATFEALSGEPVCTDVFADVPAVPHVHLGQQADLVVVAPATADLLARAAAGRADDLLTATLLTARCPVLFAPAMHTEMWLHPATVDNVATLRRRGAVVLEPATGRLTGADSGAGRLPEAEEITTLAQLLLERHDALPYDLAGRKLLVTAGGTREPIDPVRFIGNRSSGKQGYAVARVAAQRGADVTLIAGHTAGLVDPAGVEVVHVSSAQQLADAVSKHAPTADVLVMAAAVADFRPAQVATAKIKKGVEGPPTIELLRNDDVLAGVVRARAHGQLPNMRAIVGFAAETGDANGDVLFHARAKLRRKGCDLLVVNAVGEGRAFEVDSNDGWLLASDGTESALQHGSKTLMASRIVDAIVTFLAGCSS
UniProt A4I591, 1-473: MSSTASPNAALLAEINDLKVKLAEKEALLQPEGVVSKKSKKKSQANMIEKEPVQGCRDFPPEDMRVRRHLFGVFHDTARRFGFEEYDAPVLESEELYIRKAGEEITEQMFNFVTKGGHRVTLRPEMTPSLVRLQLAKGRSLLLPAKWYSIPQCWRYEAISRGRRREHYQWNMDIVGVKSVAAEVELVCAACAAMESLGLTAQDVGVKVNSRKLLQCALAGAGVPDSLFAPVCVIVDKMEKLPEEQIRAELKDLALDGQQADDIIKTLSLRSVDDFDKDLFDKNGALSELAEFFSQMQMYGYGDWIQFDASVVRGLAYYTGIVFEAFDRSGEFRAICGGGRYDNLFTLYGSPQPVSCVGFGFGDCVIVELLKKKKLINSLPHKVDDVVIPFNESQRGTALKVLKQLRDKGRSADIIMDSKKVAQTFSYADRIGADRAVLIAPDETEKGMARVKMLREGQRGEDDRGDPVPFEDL

The filed quantity is “Percent Effect” (%).
The controls that fix the scale are not given in the record; negative values are as filed.
Compounds were drawn at random from those tested, without regard to their results.
Two or more numbers in one place are separate tests of the same structure; such repeats can differ widely.
A dash means the value is not listed here; it may have been measured.

A: 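Enzyme assay of CoaBC with a phosphate dye (Biomol Green) read at 650 nm. Target: Coenzyme A biosynthesis protein CoaBC, Mycobacterium tuberculosis (UniProt P9WNZ1). Concentration: 30 µM. Higher reads as stronger inhibition, judged from the few compounds that gave an IC50. Most strong results did not repeat in a second test. Of about 67,000 compounds tested this way, about 40 (0.06%) reached 50% or more in at least one test.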
B: 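Histidine-tRNA ligase, Leishmania infantum (UniProt A4I591). Enzyme assay of histidyl-tRNA synthetase; the read-out is not stated. Compounds at 30 µM. The record gives no direction; compounds that gave an IC50 in retests scored well above the rest, so higher reads as stronger inhibition. The assay is labelled LdHisRS but filed under L. infantum. Of about 69,000 compounds tested this way, about 410 (0.6%) reached 50% or more in at least one test.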
C: 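Cell assay of Leishmania donovani living inside macrophages; the read-out is not stated. Compounds at 30 µM. Direction is inferred from retests: higher values go with stronger inhibition. About 69,000 compounds were tested under these conditions; 1.5% (about 1,000) showed 50% or more at least once.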

| structure | A | B | C |
|---|---|---|---|
| `O=C(N1CCCC1)N1CCC[C@]2(C[C@@H](OCc3ccncc3)CO2)C1` | 2.903 | 11.11 | - |
| `CC(C)c1ccc(S(=O)(=O)Cc2nc(N)nc(N(C)C)n2)cc1` | 7.258 | 18.42 | -4.82 |
| `Cc1cccc(CN2CCC3(CCCN(C(=O)NC(C)C)C3)C2=O)n1.O=C(O)C(F)(F)F` (centres unmarked) | - | - | 18.77 and 22.52 |
| `CCOc1ncccc1CNC(=O)NC(C)Cn1cccn1` (centres unmarked) | 2.35 | 13.79 | -22.27 |
| `CCc1ncc2c(n1)CN(c1nccc(C3CCCC3)n1)C2` | 3.931 | 30.11 | 28.41 |
| `O=C(O)C(F)(F)F.O=C(O)C(F)(F)F.O=C(O)C(F)(F)F.[H][C@@]12CCN(Cc3nccs3)C[C@]1([H])[C@@H](CNc1ncccn1)OC2` | - | - | -3.954 |
| `CN1CC(=O)N(c2cccc(F)c2)CC12CCN(S(=O)(=O)C1CC1)C2.O=C(O)C(F)(F)F` (centres unmarked) | - | - | 17.68 |
| `Cn1ccnc1C(=O)NCc1cnc2n1CCN(CC1CC1)CC2` | -6.42 | 2.778 | - |
| `CC(=O)Nc1nc(C(=O)NCCOc2ccccc2F)cs1` | -0.2445 | 14.52 | 27.93 |
| `CC(CO)NC(=O)Nc1ccc(Cl)cc1OCC(F)(F)F` (centres unmarked) | -13.22 | 8 | -18.96 |
| `CCN1CC2(CCN(CC3COCCO3)CC2)OC1=O` (centres unmarked) | 12.64 | 19.61 | -99.54 |
| `[H][C@@]12OCCN(C(=O)C3=CCCC3)[C@@]1([H])CC[C@@H]2OCC1CC1` | - | - | 14.56 |
| `CN1Cc2ccccc2CC2(CCN(CCO)CC2)C1=O.O=C(O)C(F)(F)F` | - | - | 40.07 |
| `c1cnnc(N2CCCC2CNCc2ccsc2)c1` (centres unmarked) | 8.549 | 4.255 | 22.8 |
| `[H][C@]12CCN(S(=O)(=O)c3cccc(F)c3)[C@@]1([H])CC[C@@H](COC)O2` | - | - | 40.24 |
| `O=C(Nc1cc(C(F)(F)F)c[nH]c1=O)C1CCCN1` (centres unmarked) | -0.1215 | 19.57 | 12.71 |
| `Cc1cc(C)n(CC2CCCN2C(=O)CCc2ccncc2)n1` (centres unmarked) | 9.759 | 19.64 | 15.35 |
| `COc1ccccc1C1(CNc2ccnc(C(=O)N(C)C)c2)CC1` | - | 10.83 | 15.66 |
| `Cc1cc(CN2CCC(CNC(=O)c3ccc(C#N)cc3)C2)[nH]n1` (centres unmarked) | 0.9346 | 17.11 | 6.605 |
| `[H][C@@]12C[C@H](C(=O)NCc3cccnc3)[C@@]([H])(CN(CC)C1)O2` | - | - | 17.65 |
| `CCN1CCC(CC(=O)N2CCCCC2CCn2cccn2)CC1` (centres unmarked) | -1.304 | 6.806 | 35.37 |
| `CN(C(=O)Cc1coc(-c2ccccc2)n1)C1(C#N)CCC1` | - | 21.13 | -22.23 |
| `COc1ccc(CCNC(C)c2ccc3[nH]c(=O)[nH]c3c2)cc1OC` (centres unmarked) | 8.991 | 3.571 | 14.15 |
| `CCCNc1ncc(CN2CCN(C)C(=O)C2C)cn1` (centres unmarked) | -0.9926 | -17.02 | -19.6 |
| `CNc1nc(C(=O)N2CCN(c3cc(C)nc(C)c3)CC2)cs1` | 2.716 | 13.99 | -6.215 |
| `O=C(O)C(F)(F)F.[H][C@]12CCCN(Cc3ccc(OC)cc3)[C@@]1([H])CN(C(=O)c1ccco1)C2` | - | - | 27.73 |
| `Cc1ccc(C2(CN3CCN(Cc4cncn4C)CC3)CC2)cc1` | 8.159 | 8.511 | - |
| `NC(=O)CSc1ccccc1NC(=O)C1CCCC1` | 9.208 | -18.09 | 5.384 |
| `OC1(CN2CCCC2)CCCN(Cc2cnc(-c3ccccc3)nc2)C1` (centres unmarked) | 1.829 | 10.99 | -23.04 |
| `CN1CCN(C2COC3(CCN(Cc4cccs4)CC3)C2)CC1.O=C(O)C(F)(F)F.O=C(O)C(F)(F)F` (centres unmarked) | - | - | 53.18 |
| `Cc1n[nH]c(C2CN(C(=O)c3cc(Cl)c[nH]3)CCO2)n1` (centres unmarked) | 6.073 | 0 | -6.581 |
| `CC(C)CNC(=O)c1sccc1-n1cnnn1` | -4.551 | 11.67 | 21.34 |
| `Cc1cc(N2CCCC(c3[nH]ncc3Cc3ccccc3)C2)nc(N)n1` (centres unmarked) | -39.19 | 13.33 | -12.45 |
| `CC(C)n1cc(C(=O)NCCCc2csc(N)n2)cn1` | 1.932 | 17.17 | -125.9 |
| `Cc1ccc(CN2Cc3cnn(C)c3C(COCC3CC3)C2)o1` (centres unmarked) | 5.33 | 14.71 | 18.03 |
| `[H][C@]12CC[C@]([H])(CN(Cc3cscn3)C1)N(C(=O)c1ccnc(OC)c1)C2` | - | - | 15.63 |
| `CC(C)c1noc(CCNC(=O)N2CCSC(C(C)C)C2)n1` (centres unmarked) | -1.908 | 7.317 | 19.78 |
| `CCN(C(=O)Cn1cc(Cl)cn1)c1ccccc1` | 15.41 | 10.36 | 5.751 |
| `CNc1nc(C)c(C(=O)N2CCCCC2CN2CCCCCC2)s1` (centres unmarked) | 12.44 | 22.63 | -0.6195 |
| `CN(C)c1nc(N)nc(CN2CCCC2c2cccs2)n1` (centres unmarked) | 5.455 | 14.29 | 87.57 |
| `CSc1nsc(NC(=O)N2CCc3ccccc3C2)n1` | -0.8424 | 2.247 | 11.85 |
| `Cc1cnc(NC(=O)c2csc(NCC(C)C)n2)s1` | -1.277 | 23.38 | 62.13 |
| `C[C@H]1CN2C[C@H](O)CC2CN1Cc1ccc2nccnc2c1.Cl` (some centres unmarked) | - | - | 5.098 |
| `Cc1c(F)cccc1S(=O)(=O)NCCN.Cl` | - | - | -6.834 |
| `COc1ccc(-c2cc(C(=O)N3N=C(C)CC3(O)C(F)(F)F)[nH]n2)cc1` (centres unmarked) | 3.671 | -10 | -19.24 |
| `COC(=O)c1ccc(N2CCN(C(=O)C(C)C)C(C)C2)cc1` (centres unmarked) | 2.644 | 12.5 | -6.534 |
| `CN1CCCC1(CCCc1cccnc1)C(=O)NCc1nccn1C` (centres unmarked) | 2.913 | 14.29 | 27.11 |
| `Cc1ccsc1-c1nnc(SCC(=O)O)n1C(C)c1ccccc1` (centres unmarked) | 7.015 | 26.03 | 5.815 |
| `COCCn1ccc2c(C(=O)NCC3CCCO3)cccc21` (centres unmarked) | 5.19 | 20 | 40.85 |
| `Nc1nccc(-c2c[nH]nc2C2CCCCC2)n1` | 6.649 | 14.86 | -78.53 |
| `COCCn1ccc2cc(NC(=O)N(C)C(C)CSC)ccc21` (centres unmarked) | 9.474 | 22.64 | -51.1 |
| `CCCC(=O)N1CCC(c2nc(O)c3c(n2)CCN(C2CCCC2)C3)C1` (centres unmarked) | 2.941 | 19.79 | 10.1 |
| `Cc1cc(-c2cnn(CCNC(=O)c3cc[nH]n3)c2C2CC2)on1` | 2.421 | 6.186 | 11.75 and -7.757 |
| `CN1CCc2ccc(NCc3cscn3)cc2C1=O` | 0.2457 | 15.08 | 13.47 |
| `O=C(CCc1nc2cccnc2[nH]1)NCc1cccnc1` | -0.4038 | 13.59 | 3.716 |
| `COc1ccc(O)c(C(=O)NCC2CCCN(C3CCOCC3)C2)c1` (centres unmarked) | -12.02 | 11.67 | 11.89 |
| `CCOc1ccnc(N2CCN(C(=O)CCc3ccsc3)CC2)n1` | 10.15 | 20 | -8.285 |
| `CCOC(=O)CC1CCCCN1C(=O)c1cc(=O)[nH]c(=O)[nH]1` (centres unmarked) | -1.653 | -8 | 19.73 |
| `Cl.[H][C@@]12OCCC[C@]1([H])NC[C@@H]2NC(=O)c1cscn1` | - | - | 25.22 |
| `FC(F)(F)c1ccc2[nH]c([C@H]3CCNC3)nc2c1` | -17.49 | 16.22 | 18.23 |
| `Cn1ccnc1-c1nccn1-c1cccc(CN2CCCC2)c1` | 8.848 | 13.98 | 13.16 |
| `CC(Cn1cccn1)NCc1csc(-c2ccccc2F)n1` (centres unmarked) | 1.542 | 19.05 | 18.55 |
| `Cc1cc(CNS(=O)(=O)CCCC#N)ccc1N(C)C` | 2.265 | 29.41 | 31.94 |
| `CCC[C@@H]1CN(Cc2ccc3c(c2)OCCO3)C[C@H]1C(=O)O` | -0.8444 | 10.4 | 6.507 |
| `CN(C)C[C@H]1OC[C@@H]2CCN(C(=O)NCc3cccc(F)c3)C[C@@H]21` | -0.6148 | 6 | - |
| `CC(NCCCC#N)c1ccc(-c2cccnc2)cc1` (centres unmarked) | 6.159 | 25.4 | 5.657 |
| `Cc1cc(-c2cnc(N3CCNC(=O)C3)nc2-c2ccc(C)o2)on1` | -4.663 | 15.33 | -10.43 |
| `Cc1nc(COc2ccc(OC(C)C(N)=O)cc2)oc1C` (centres unmarked) | 4.156 | 6.452 | 30.91 |
| `Cc1n[nH]c(=O)c2c(NC(=O)CN3CCC(C)CC3)oc(C)c12` | 17.05 | 18.87 | 8.183 |
| `O=C(c1csc(-c2nnc[nH]2)n1)N1CCCCC1Cn1cccn1` (centres unmarked) | -2.937 | 13.39 | 4.433 |
| `O=C(O)C(F)(F)F.O=C(O)C(F)(F)F.[H][C@@]12COC[C@]1(COCc1ccncc1)CN(Cc1ccsc1)C2` | - | - | 7.677 |
| `Cc1nn(C)c(C)c1CCC(=O)OCC(=O)N1CCc2sccc2C1` | -1.471 | -4.444 | -34.84 |
| `O=C1NC(c2ccccc2)=N[C@@]12CC[C@@H]1CN(Cc3ccco3)C[C@@H]12` | 1.904 | 9.434 | - |
| `CC(=O)N1CCCC(c2cccc(-n3ccnc3)n2)C1` (centres unmarked) | 1.942 | -76.81 | 5.273 and -6.382 |

Once more, the final 5:

structure,A,B,C
O=C(c1csc(-c2nnc[nH]2)n1)N1CCCCC1Cn1cccn1 (centres unmarked),-2.937,13.39,4.433
O=C(O)C(F)(F)F.O=C(O)C(F)(F)F.[H][C@@]12COC[C@]1(COCc1ccncc1)CN(Cc1ccsc1)C2,-,-,7.677
Cc1nn(C)c(C)c1CCC(=O)OCC(=O)N1CCc2sccc2C1,-1.471,-4.444,-34.84
O=C1NC(c2ccccc2)=N[C@@]12CC[C@@H]1CN(Cc3ccco3)C[C@@H]12,1.904,9.434,-
CC(=O)N1CCCC(c2cccc(-n3ccnc3)n2)C1 (centres unmarked),1.942,-76.81,5.273 and -6.382

Measurements from “University of Dundee, Small-Polar-MMV Screening Library” (2021), ChEMBL document CHEMBL3988442.